PMC12040169 (PLOS Biology, 2025)
The other results are listed elsewhere or left out.

What follows are molecules tested on T1, CTL2-GFP (C. trachomatis L2/434/Bu, GFP-expressing). Conditions: bulk GFP, single well; 28.5 h, 10 µM; inhibitor.
T1 construct: L2/434/Bu, GFP-expressing
Design: species or system HeLa; Intracellular C. trachomatis growth in HeLa cells, bulk GFP fluorescence relative to DMSO

Row | SMILES | % of control remaining
1 | O=C(NCC1COc2ccccc2O1)NC(=O)C1CCNCC1 (stereo not drawn) [CBK051096] | 118.731%
2 | Cc1c(C(=O)O)sc2c1c(=O)n(Cc1ccccc1)c(=O)n2CCN(C)C [CBK286590] | 121.405%
3 | CC(=O)NC1=NC(=O)CN1C [CBK020181] | 127.523%
4 | CCN1CCCCC1CNC(=O)c1cc(C2CC2)n[nH]1 (stereo not drawn) [CBK282205] | 126.499%
5 | O=C(c1ccc(-c2nccnc2N2CCN(CCO)CC2)cc1)N1CCOCC1 [CBK036812] | 220.682%
6 | O=C(C1=C(O)C(=O)N(CCCn2ccnc2)C1c1ccncc1)c1ccccc1 (stereo not drawn) [CBK264527] | 133.525%
7 | O=C(Nc1cccc2nsnc12)c1ccc(Cl)cc1 [CBK263793] | 122.597%
8 | COC(=O)c1ccc(NC(=O)CC2Sc3ccc(C(F)(F)F)cc3NC2=O)cc1 (stereo not drawn) [CBK264645] | 102.076%
9 | CN(CC(=O)Nc1sc2c(c1C#N)CCCCC2)Cc1cnn(C)c1 [CBK304621] | 158.331%
10 | O=c1n(-c2ccc(Cl)c(Cl)c2)ccn1S(=O)(=O)CCc1cccc2ccccc12 [CBK106668] | 162.536%
11 | COc1ccc(C(C)N(CCN2CCOCC2)C(=O)NCc2cccc3ccccc23)cc1OC (stereo not drawn) [CBK158984] | 46.9416%
12 | COc1ccc(C2CC(c3ccccc3)=NN2c2ccc(S(N)(=O)=O)cc2)cc1OC (stereo not drawn) [CBK268193] | 101.214%
13 | CC(OC(=O)N1CCN(c2ccccc2)CC1)c1ccccc1 (stereo not drawn) [CBK200243] | 114.851%
14 | NC1=C2NC(c3cccc(C(=O)O)c3)=NN2N(c2ccccc2)N1 [CBK093663] | 125.753%
15 | COc1ccc(OC)c(CN2CCCN(C)CC2)c1 [CBK261554] | 100%
16 | CC(Oc1ccc2c(c1)OCO2)C(=O)NNC(=O)Nc1cccc(Cl)c1Cl (stereo not drawn) [CBK266852] | 175.108%
17 | COc1cncc(-c2cc(NC3CCCCC3)ncn2)c1 [CBK090903] | 225.879%
18 | CN(C(=O)c1c[nH]nc1C1CCCN(Cc2ccnc3ccccc23)C1)C1CCCCC1 (stereo not drawn) [CBK286491] | 134.138%
19 | CC(NC(=O)C(C)(C)C)c1nc(-c2ccncc2)n[nH]1 (stereo not drawn) [CBK104074] | 106.178%
20 | O=C(CC1CC1)NC(c1ccccc1)c1ccccn1 (stereo not drawn) [CBK144108] | 78.4325%
21 | Cc1cc(NC(=O)c2ccccc2O)n(C)n1 [CBK000190] | 92.7801%
22 | CCn1c(COc2ccccc2Cl)nnc1SCC(=O)N1c2ccccc2Sc2ccccc21 [CBK265957] | 90.3621%
23 | N/C(=N/O)c1ccc(-n2cncn2)nc1 [CBK020936] | 130.735%
24 | COc1cccc(OC)c1OCCN1CCC(C(=O)NC(c2ccccc2)c2ccccn2)CC1 (stereo not drawn) [CBK148419] | 124.598%
25 | Cc1noc(C)c1C(=O)NC1(c2ccc(F)cc2)CCCC1 [CBK284013] | 122.411%
26 | Cc1cc(NC(=O)CN2CC(C)CC(C)C2)nc2c1c(=O)oc1ccccc12 (stereo not drawn) [CBK287620] | 146.473%

Row | SMILES | % of control remaining
27 | O=C(Nc1nnc(-c2ccco2)o1)c1ccc(N2C(=O)CCC2=O)cc1 [CBK287423] | 157.809%
28 | O=C(NCc1nnc(-c2cccs2)o1)C1(c2cccc(F)c2)CC1 [CBK284639] | 153.168%
29 | COCC(=O)N1CCc2cc(-c3cn4ccccc4n3)ccc21 [CBK285274] | 147.35%
30 | O=c1[nH]c2ncc(-c3cncc4ccccc34)nc2n1C1CCC(O)CC1 (stereo not drawn) [CBK065013] | 144.145%
31 | Cc1ccc(S(=O)(=O)N(C)CC(=O)OCC(=O)c2ccccc2)cc1 [CBK264329] | 131.074%
32 | CCc1nc(C)c(C(C)N(C)CC(=O)NCc2ccco2)s1 (stereo not drawn) [CBK305203] | 132.072%
33 | N#CCCn1cc(C(=O)Oc2ccc(-c3ccccc3)cc2)c(-c2cccc([N+](=O)[O-])c2)n1 [CBK267968] | 87.5523%
34 | c1csc(-c2cc3cccnc3n2CCN2CCOCC2)c1 [CBK282718] | 128.824%
35 | CN(Cc1ccccc1)C(=O)c1c[nH]nc1C1CCCN(Cc2cccc(Cl)c2)C1 (stereo not drawn) [CBK286490] | 150.435%
36 | CCN(C(=O)CCc1nc2ccccc2n1C)C1CCN(C)CC1 [CBK281994] | 129.842%
37 | CS(=O)(=O)Nc1cc2cccnc2c(-c2ccc3c(c2)CCO3)n1 [CBK085705] | 128.621%
38 | O=C1N=C(NCC2CCCCC2)OC1Cc1ccccc1 (stereo not drawn) [CBK067023] | 111.109%
39 | O=C1c2cccc3cccc(c23)C(=O)N1CC1CCN(CC(O)COCc2ccccc2)CC1 (stereo not drawn) [CBK074407C] | 76.4476%
40 | Cn1c(=O)[nH]c(=O)c2c1nc(N1CCOCC1)n2CCCSc1nc2ccccc2s1 [CBK269368] | 120.537%
41 | Cc1ccc(-c2nn(-c3ccccc3)cc2C2CC(c3cccs3)=NN2C(=O)CCC(=O)O)cc1 (stereo not drawn) [CBK296126] | 123.895%
42 | OC(COCc1ccc2c(c1)OCO2)CN1CCN(C(c2ccccc2)c2ccccc2)CC1 (stereo not drawn) [CBK074850C] | 104.525%
43 | OCc1cccc(-c2nccnc2NCc2ccc(OC(F)(F)F)cc2)c1 [CBK037476] | 151.179%
44 | Cc1nn(CC(=O)NC(C)C)c(=O)c2cc3ccsc3n12 [CBK284027] | 153.384%
45 | C/C(C(=O)O)=C(/C)C(=O)N1CCC2(C1)NCCc1c2[nH]c2ccccc12 (stereo not drawn) [CBK046995] | 104.605%
46 | Cn1c(-c2c(CCC(=O)O)oc3cc(O)ccc3c2=O)nc2ccccc21 [CBK264831] | 134.929%
47 | Cc1ccc([C@@]2(O)CC[C@@H]3CN(S(=O)(=O)C(C)C)C[C@@H]32)cc1 [CBK285297] | 119.679%
48 | Cc1ccccc1/N=C1/NC(=O)/C(=C/c2cccn2-c2ccc(S(N)(=O)=O)cc2)S1 [CBK265681] | 105.288%
49 | NNC(=O)/C(=C\c1ccccc1)CCO [CBK261215] | 84.6768%
50 | Cn1cnc(S(=O)(=O)Nc2cccc3cc[nH]c23)c1 [CBK159554] | 95.513%
51 | O=C(c1ccc(-c2ccc(OCC3CCN(c4ncccn4)CC3)cn2)cc1)N1CCOCC1 [CBK173183] | 125.335%
52 | O=C(CCn1cnc2ccccc21)N1CC[C@@H](c2ccccc2)[C@H](O)C1 [CBK283712] | 97.5358%

Ordered by number of heavy atoms (rising): part of the list above.
Row | SMILES | % of control remaining
45 | C/C(C(=O)O)=C(/C)C(=O)N1CCC2(C1)NCCc1c2[nH]c2ccccc12 (stereo not drawn) [CBK046995] | 104.605%
48 | Cc1ccccc1/N=C1/NC(=O)/C(=C/c2cccn2-c2ccc(S(N)(=O)=O)cc2)S1 [CBK265681] | 105.288%
33 | N#CCCn1cc(C(=O)Oc2ccc(-c3ccccc3)cc2)c(-c2cccc([N+](=O)[O-])c2)n1 [CBK267968] | 87.5523%

The list goes on.

Row | SMILES | % of control remaining
53 | Cc1nn(C)c(N2CCN(C(=O)OC(C)(C)C)CC2)c1N [CBK034182] | 6.084%
54 | Cc1cc(C)nc(N2CCC(CC(=O)N(C)CC(C)c3ccccc3)CC2)n1 (stereo not drawn) [CBK286105] | 104.701%
55 | COc1ccccc1NC(=O)C1=C(C)NC(SCC(=O)Nc2ccc(C(=O)O)cc2)=C(C#N)C1c1cccs1 (stereo not drawn) [CBK296139] | 134.771%
56 | O=C(NCCCN1CCN(Cc2ccccc2)CC1)c1cn2cc(C(F)(F)F)cc(Cl)c2n1 [CBK074654] | 105.638%
57 | CC(C)Nc1cncc(OCCN2CCNCC2)n1 [CBK115601] | 105.018%
58 | COC1C(O)C(CO)OC1n1ccc(NC(=O)c2ccccc2)nc1=O (stereo not drawn) [CBK201212] | 114.131%
59 | Cc1ccc(CN(CCCN(C)C)Cc2nc(C)n3ccccc23)o1 [CBK282482] | 85.5991%
60 | COc1ccccc1NS(=O)(=O)c1cc(S(=O)(=O)Nc2ccccc2OC)c(C)cc1C [CBK261493] | 112.119%
61 | N#Cc1ccc(C(=O)Nc2nnc(-c3ccccn3)o2)cc1 [CBK287428] | 136.494%
62 | CN(C)C(CNS(=O)(=O)c1ccc2[nH]c(=O)[nH]c(=O)c2c1)c1ccccc1Cl (stereo not drawn) [CBK286385] | 122.049%
63 | O=C1C2CCCN2S(=O)(=O)c2ccccc2N1Cc1ccccc1 (stereo not drawn) [CBK284018] | 106.686%
64 | Nc1cc(N)nc(SCC(=O)Nc2nonc2N)n1 [CBK267522] | 144.433%
65 | CC(=O)N1CC[C@H]2NC(=O)CNC(=O)C3(CCCC[C@H]2C1)CCN(C(=O)c1ccc(C)nc1)CC3 [CBK292172] | 169.445%
66 | O=C(c1cc2c(s1)CCC2)N1CCc2c(nc[nH]c2=O)C1 [CBK283703] | 109.422%
67 | O=C(O)c1sccc1NS(=O)(=O)Cc1ccccc1 [CBK004561] | 180.841%
68 | CCN(CC)CCN(Cc1ccc2c(c1)OCO2)C(=O)Nc1cccc(NC(C)=O)c1 [CBK159042] | 100.323%
69 | COc1ccc(Cc2nc(-c3ccccc3)c3ccccc3n2)cc1F [CBK291176] | 138.8%
70 | CC1CN(C2(n3nnc4ccccc43)CCC(C(C)(C)C)CC2)CC(C)O1 (stereo not drawn) [CBK019373] | 117.516%
71 | CCSc1cc(Nc2nc(Cl)cc(SCC)n2)nc(N)n1 [CBK005164] | 113.624%
72 | COc1ccc(Nc2nc(Cl)nc(NCCN3CCOCC3)n2)cc1 [CBK027610] | 155.324%
73 | FC(F)(F)c1ccnc(OCc2ccc(-c3ccccc3)cc2)c1 [CBK115826] | 94.8918%
74 | Cc1ccc(-c2nccnc2OCCn2cccc2)cc1C [CBK106864] | 104.508%
75 | COc1ccc(CSc2nnc(-c3ccncc3)n2C)cc1[N+](=O)[O-] [CBK269638] | 156.554%
76 | CCn1c(C(CC(C)C)NC(=O)c2ccco2)nc2cccnc21 (stereo not drawn) [CBK283523] | 111.546%
77 | O=C(CNC(=O)c1ccccc1Cl)Nc1ccc(Br)cc1C(=O)c1ccccc1 [CBK087691] | 100%
78 | CC(C)c1nsc(NS(=O)(=O)c2cc(OCC(F)(F)F)ccc2OCC(F)(F)F)n1 [CBK051262] | 139.232%

Reformatted tab-delimited: two of the compounds above.
Row	SMILES	% of control remaining
59	Cc1ccc(CN(CCCN(C)C)Cc2nc(C)n3ccccc23)o1 [CBK282482]	85.5991%
60	COc1ccccc1NS(=O)(=O)c1cc(S(=O)(=O)Nc2ccccc2OC)c(C)cc1C [CBK261493]	112.119%
